Data on five targets can be found in the supplement of paper PMC6411743.

The chains behind the UniProt entries cited, without tags or fusion partners. Where a name states a change or a piece, a line headed by the entry shows the natural chain unless it says otherwise.
UniProt Q5SWX8: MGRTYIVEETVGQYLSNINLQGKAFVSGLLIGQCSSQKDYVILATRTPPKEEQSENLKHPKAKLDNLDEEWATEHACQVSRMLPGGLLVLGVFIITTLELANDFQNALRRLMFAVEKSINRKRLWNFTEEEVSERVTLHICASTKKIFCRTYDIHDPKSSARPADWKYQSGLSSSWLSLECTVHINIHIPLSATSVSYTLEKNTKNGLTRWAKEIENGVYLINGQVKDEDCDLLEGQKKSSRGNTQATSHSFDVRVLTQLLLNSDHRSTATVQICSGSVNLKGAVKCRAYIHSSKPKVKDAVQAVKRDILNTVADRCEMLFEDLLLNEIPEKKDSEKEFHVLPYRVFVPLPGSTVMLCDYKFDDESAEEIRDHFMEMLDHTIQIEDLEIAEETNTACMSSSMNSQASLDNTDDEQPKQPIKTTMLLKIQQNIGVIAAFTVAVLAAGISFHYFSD
UniProt Q14692: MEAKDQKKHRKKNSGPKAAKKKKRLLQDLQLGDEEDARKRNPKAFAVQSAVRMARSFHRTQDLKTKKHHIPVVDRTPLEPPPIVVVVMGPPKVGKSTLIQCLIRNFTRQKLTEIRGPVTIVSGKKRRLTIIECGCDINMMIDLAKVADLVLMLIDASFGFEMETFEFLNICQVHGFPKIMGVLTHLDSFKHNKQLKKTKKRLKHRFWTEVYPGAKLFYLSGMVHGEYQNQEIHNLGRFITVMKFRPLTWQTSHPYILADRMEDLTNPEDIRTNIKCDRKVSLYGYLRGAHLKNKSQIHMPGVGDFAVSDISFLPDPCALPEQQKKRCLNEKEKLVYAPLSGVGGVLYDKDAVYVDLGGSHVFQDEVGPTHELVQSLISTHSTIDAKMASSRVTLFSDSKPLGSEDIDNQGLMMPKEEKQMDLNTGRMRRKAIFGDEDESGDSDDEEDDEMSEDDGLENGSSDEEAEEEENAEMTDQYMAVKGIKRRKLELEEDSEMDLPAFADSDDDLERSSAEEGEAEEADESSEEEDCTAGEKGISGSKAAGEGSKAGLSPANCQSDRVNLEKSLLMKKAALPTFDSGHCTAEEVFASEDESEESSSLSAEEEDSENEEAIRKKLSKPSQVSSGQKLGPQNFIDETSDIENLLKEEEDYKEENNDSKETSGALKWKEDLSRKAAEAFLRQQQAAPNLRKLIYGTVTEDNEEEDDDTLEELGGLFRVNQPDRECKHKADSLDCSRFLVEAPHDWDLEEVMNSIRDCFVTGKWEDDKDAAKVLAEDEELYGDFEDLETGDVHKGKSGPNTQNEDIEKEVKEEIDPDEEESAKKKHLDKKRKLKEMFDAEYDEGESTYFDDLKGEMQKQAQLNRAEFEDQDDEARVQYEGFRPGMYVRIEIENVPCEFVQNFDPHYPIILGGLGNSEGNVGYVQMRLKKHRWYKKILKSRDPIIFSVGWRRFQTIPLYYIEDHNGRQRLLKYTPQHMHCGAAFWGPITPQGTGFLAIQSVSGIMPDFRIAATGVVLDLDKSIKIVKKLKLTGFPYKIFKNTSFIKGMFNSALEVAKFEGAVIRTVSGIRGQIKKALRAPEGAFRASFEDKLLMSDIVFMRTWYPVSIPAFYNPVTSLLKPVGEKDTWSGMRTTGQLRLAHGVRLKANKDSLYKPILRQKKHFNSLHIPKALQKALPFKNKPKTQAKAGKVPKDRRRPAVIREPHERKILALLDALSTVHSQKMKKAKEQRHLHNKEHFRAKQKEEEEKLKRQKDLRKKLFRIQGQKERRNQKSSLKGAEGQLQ
UniProt Q5T1M5: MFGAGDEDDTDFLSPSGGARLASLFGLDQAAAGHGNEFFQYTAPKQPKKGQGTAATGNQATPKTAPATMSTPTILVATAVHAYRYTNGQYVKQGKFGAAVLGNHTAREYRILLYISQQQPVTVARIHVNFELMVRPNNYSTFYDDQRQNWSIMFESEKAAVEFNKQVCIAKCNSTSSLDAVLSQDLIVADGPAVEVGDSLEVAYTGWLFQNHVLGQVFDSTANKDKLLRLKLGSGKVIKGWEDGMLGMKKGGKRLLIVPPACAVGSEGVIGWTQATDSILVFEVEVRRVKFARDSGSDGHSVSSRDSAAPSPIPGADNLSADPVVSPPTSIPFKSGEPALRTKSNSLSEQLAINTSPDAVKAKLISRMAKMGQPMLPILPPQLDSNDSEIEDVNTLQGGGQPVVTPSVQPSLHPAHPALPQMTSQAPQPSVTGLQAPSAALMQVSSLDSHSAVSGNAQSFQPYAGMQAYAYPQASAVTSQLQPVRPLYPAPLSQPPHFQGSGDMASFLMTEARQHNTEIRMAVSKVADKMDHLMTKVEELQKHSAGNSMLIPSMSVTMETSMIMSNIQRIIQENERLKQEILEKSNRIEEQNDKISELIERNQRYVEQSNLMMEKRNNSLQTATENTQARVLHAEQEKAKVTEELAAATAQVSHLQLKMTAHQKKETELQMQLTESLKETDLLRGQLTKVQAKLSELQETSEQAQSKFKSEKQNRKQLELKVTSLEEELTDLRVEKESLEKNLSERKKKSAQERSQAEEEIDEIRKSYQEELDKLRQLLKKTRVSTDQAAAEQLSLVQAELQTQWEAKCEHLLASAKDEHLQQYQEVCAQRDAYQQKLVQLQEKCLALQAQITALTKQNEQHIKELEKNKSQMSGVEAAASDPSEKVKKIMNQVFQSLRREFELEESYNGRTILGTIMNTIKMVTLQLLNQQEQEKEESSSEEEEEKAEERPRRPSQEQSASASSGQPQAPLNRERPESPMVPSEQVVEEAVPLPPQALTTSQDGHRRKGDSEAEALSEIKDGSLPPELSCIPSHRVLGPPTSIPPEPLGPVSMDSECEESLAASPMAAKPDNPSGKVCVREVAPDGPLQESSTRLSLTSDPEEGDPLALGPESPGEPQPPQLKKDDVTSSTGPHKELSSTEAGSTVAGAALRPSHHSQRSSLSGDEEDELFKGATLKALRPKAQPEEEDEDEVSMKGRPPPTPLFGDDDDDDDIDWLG
UniProt Q16186: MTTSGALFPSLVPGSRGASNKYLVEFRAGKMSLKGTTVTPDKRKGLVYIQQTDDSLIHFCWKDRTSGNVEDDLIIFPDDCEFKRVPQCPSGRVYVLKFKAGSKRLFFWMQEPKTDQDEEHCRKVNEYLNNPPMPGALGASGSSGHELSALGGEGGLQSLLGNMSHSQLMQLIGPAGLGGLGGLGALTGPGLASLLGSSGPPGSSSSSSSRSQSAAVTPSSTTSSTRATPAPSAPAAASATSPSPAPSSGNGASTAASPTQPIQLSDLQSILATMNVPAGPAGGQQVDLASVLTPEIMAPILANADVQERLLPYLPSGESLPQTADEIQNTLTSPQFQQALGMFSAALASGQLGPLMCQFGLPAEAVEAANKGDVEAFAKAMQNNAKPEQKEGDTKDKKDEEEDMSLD
UniProt Q5EBL8: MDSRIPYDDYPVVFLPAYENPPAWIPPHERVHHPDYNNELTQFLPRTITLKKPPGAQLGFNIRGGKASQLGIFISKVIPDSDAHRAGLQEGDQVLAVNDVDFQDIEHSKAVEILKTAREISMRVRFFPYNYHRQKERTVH

± gives the standard deviation of the averaged measurements. This is one part of the list.

Compound in this experiment: Nc1nc2c(ncn2[C@@H]2O[C@H](COP(=O)(O)OP(=O)(O)OP(=O)(O)O)[C@@H](O)[C@H]2O)c(=O)[nH]1 [guanosine triphosphate]
Kind of experiment: NP40-soluble protein abundance relative to vehicle (solubility fold change) (ratio); higher = more soluble protein in presence of GTP. As to the method: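 Solubility proteome profiling in Jurkat crude lysate. Lysate was treated with Mg-GTP (0.1-10 mM) for 10 min at room temperature and 3 min at 37 °C, then solubilised with 0.8% NP40 and benzonase, followed by ultracentrifugation. Proteins were quantified by TMT10 LC-MS/MS; the value is the NP40-soluble abundance relative to the NP40-processed vehicle, from 3 independent experiments.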

For the target UniProt Q5SWX8 and related entries, the NP40-soluble protein abundance (concentration: 0.1mM) came out at 1.07 ± 0.052; the NP40-soluble protein abundance (concentration: 0.5mM) was determined as 1.09 ± 0.11; the NP40-soluble protein abundance (concentration: 1mM) amounted to 0.997 ± 0.086; the NP40-soluble protein abundance (concentration: 2mM) was 1.03 ± 0.11; the NP40-soluble protein abundance (concentration: 4mM) was 1 ± 0.073; the NP40-soluble protein abundance (concentration: 6mM) was determined as 0.9717 ± 0.0092. Further, the NP40-soluble protein abundance (concentration: 8mM) is 0.939 ± 0.054 and the NP40-soluble protein abundance (concentration: 10mM) amounted to 0.988 ± 0.074.

In the case of BMS1 (UniProt Q14692), the NP40-soluble protein abundance was determined as 0.895 ± 0.022 (concentration: 0.1mM); 0.926 ± 0.077 (concentration: 0.5mM); 1.02 ± 0.018 (concentration: 1mM); 1.01 ± 0.12 (concentration: 2mM); 1 ± 0.046 (concentration: 4mM); 1.04 ± 0.089 (concentration: 6mM). The NP40-soluble protein abundance is, setting by setting: (concentration: 8mM) 1.02 ± 0.03; (concentration: 10mM) 1.12 ± 0.11.

As for FKBP15 (UniProt Q5T1M5), the NP40-soluble protein abundance is, setting by setting: (concentration: 0.1mM) 0.995 ± 0.078; (concentration: 0.5mM) 0.997 ± 0.061; (concentration: 1mM) 1.02 ± 0.035; (concentration: 2mM) 0.975 ± 0.049; (concentration: 4mM) 0.99 ± 0.062; (concentration: 6mM) 0.983 ± 0.049. For the same target, the NP40-soluble protein abundance is, setting by setting: (concentration: 8mM) 1.04 ± 0.071; (concentration: 10mM) 0.995 ± 0.06.

Take ADRM1 (UniProt Q16186): the NP40-soluble protein abundance is, setting by setting: (concentration: 0.1mM) 0.994 ± 0.046; (concentration: 0.5mM) 0.96 ± 0.069; (concentration: 1mM) 1.09 ± 0.063; (concentration: 2mM) 1.12 ± 0.078; (concentration: 4mM) 1.17 ± 0.12; (concentration: 6mM) 1.1 ± 0.098. For the same target, the NP40-soluble protein abundance (concentration: 8mM) was determined as 1.17 ± 0.14 and the NP40-soluble protein abundance (concentration: 10mM) stood at 1.14 ± 0.19.

In the case of UniProt Q5EBL8 and related entries, the NP40-soluble protein abundance (concentration: 0.1mM) was determined as 1.14 ± 0.086; the NP40-soluble protein abundance (concentration: 0.5mM) was 1.02 ± 0.091; the NP40-soluble protein abundance (concentration: 1mM) amounted to 1.23 ± 0.15; the NP40-soluble protein abundance (concentration: 2mM) worked out at 1.24 ± 0.07; the NP40-soluble protein abundance (concentration: 4mM) stood at 1.24 ± 0.19; the NP40-soluble protein abundance (concentration: 6mM) was 1.13 ± 0.13. Moreover, the NP40-soluble protein abundance (concentration: 8mM) was found to be 1.3 ± 0.048 and the NP40-soluble protein abundance (concentration: 10mM) stood at 1.26 ± 0.066.
